Data: the supplement of paper PMC6411743
± gives the standard deviation of the averaged measurements. The list shows a part of the results.

Sequences of proteins named here, by UniProt entry; tags and fusion partners are left off. A change or cut given only in a name is not applied to a line headed by its entry.
UniProt Q9HCS7: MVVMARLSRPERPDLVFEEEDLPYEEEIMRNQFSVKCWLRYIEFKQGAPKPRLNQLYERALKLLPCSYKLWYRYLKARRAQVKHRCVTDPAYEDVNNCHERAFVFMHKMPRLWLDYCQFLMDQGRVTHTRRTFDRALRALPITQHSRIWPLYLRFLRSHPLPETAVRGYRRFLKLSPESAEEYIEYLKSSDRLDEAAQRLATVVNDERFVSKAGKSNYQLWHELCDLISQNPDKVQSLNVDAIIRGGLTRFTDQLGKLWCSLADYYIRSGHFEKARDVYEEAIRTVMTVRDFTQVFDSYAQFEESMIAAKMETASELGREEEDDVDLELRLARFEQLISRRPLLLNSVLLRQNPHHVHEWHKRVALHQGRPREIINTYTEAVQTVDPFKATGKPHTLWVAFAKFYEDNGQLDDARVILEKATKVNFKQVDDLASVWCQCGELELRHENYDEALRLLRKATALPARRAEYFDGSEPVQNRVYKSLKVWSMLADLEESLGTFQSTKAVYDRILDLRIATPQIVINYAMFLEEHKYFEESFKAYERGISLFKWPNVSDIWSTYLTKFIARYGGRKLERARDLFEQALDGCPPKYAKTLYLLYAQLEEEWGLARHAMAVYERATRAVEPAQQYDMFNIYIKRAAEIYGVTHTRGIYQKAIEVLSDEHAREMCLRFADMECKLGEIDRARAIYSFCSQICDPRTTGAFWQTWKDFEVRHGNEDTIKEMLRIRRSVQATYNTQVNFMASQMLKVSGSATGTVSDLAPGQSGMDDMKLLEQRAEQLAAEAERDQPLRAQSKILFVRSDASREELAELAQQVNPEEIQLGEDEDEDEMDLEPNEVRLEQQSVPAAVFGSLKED
UniProt Q9NPG3, whole entry: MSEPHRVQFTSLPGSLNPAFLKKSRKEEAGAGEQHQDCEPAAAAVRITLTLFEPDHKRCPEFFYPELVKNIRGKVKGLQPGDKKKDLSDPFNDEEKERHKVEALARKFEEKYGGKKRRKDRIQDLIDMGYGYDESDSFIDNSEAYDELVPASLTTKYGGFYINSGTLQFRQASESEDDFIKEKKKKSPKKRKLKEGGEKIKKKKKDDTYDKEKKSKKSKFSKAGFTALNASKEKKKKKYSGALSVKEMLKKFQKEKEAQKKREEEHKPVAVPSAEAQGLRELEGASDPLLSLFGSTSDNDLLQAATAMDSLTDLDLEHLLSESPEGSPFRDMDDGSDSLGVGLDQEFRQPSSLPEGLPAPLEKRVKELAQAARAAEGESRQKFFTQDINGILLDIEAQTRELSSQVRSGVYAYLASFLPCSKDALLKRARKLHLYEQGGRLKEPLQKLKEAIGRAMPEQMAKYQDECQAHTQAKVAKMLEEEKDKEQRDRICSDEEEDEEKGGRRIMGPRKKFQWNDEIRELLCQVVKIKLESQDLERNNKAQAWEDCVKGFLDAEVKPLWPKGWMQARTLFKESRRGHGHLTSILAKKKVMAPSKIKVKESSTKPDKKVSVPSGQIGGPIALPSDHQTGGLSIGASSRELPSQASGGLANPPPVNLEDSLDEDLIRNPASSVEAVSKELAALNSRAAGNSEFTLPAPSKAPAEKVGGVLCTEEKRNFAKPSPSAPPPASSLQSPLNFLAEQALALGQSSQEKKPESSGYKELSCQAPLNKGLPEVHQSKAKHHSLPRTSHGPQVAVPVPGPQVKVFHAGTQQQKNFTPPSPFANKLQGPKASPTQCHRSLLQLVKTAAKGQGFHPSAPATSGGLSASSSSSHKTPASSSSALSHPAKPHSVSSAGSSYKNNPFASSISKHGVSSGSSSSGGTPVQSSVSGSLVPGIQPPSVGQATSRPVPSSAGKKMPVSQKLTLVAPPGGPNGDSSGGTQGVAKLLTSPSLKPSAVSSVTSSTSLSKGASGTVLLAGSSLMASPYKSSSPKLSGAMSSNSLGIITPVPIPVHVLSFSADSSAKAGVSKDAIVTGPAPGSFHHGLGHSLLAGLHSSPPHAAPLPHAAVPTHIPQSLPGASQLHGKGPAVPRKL
UniProt Q9H7H0: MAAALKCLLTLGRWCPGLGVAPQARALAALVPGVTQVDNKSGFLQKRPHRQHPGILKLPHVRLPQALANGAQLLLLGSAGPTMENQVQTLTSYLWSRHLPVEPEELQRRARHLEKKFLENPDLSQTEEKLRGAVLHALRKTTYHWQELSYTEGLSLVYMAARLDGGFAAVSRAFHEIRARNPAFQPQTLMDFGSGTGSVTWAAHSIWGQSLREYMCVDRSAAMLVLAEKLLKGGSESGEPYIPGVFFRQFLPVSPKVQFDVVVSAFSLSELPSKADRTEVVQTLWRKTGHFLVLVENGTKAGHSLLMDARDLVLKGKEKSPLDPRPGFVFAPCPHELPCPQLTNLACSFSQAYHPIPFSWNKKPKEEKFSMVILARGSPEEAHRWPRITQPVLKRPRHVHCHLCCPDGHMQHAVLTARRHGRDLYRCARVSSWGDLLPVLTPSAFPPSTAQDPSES
UniProt Q9NPD8: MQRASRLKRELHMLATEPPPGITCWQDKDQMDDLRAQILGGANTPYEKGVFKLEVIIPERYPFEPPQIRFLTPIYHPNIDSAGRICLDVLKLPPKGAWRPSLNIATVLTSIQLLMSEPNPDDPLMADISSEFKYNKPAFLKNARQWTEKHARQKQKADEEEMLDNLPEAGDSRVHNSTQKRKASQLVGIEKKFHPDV
UniProt Q9C0B1, whole entry, looked up: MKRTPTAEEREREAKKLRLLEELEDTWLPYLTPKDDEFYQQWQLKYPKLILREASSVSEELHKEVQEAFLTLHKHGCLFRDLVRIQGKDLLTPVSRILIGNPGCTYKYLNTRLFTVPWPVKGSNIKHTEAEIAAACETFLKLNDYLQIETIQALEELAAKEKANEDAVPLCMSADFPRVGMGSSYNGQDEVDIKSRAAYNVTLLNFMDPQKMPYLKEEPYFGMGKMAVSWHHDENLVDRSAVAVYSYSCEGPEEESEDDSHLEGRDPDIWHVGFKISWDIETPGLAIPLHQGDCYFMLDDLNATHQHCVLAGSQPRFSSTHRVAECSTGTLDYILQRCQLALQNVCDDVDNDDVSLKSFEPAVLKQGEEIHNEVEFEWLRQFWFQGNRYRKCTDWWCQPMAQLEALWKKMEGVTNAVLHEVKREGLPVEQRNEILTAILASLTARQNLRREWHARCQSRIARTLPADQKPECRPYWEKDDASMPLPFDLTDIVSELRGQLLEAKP
UniProt Q9NPA8: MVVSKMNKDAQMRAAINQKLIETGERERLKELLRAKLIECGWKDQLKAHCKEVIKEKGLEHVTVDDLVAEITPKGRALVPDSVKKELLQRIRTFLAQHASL
UniProt Q9H857: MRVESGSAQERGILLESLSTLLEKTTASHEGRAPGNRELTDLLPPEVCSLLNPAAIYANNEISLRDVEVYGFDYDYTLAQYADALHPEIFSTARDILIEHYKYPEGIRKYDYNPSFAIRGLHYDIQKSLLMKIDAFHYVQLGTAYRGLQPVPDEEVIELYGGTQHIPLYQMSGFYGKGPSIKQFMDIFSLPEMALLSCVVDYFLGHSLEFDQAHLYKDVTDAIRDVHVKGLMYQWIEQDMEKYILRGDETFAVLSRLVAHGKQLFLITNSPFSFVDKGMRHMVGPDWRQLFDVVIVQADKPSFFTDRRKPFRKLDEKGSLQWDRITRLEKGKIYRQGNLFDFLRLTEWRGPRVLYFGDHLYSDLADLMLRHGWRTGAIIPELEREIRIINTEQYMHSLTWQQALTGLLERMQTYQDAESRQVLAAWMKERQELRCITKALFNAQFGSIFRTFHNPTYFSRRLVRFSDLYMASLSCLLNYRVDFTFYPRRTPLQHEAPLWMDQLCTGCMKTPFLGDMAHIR
UniProt Q9NSK0: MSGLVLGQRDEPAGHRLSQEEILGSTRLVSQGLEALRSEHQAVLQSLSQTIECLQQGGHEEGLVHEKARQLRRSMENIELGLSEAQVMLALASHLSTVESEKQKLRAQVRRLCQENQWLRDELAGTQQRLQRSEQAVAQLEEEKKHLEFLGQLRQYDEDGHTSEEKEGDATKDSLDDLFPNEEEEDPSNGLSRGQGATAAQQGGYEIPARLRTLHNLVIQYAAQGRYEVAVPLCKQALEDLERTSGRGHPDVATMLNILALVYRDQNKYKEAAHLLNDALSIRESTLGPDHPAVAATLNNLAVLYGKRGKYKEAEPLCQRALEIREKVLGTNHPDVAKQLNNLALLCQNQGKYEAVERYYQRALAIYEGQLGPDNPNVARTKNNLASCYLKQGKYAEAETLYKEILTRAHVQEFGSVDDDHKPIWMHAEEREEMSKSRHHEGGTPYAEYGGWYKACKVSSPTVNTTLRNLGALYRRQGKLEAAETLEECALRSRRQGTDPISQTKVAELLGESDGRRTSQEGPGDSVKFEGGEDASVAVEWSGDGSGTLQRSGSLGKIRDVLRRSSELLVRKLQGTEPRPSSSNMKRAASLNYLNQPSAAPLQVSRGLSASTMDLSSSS
UniProt Q9NP77: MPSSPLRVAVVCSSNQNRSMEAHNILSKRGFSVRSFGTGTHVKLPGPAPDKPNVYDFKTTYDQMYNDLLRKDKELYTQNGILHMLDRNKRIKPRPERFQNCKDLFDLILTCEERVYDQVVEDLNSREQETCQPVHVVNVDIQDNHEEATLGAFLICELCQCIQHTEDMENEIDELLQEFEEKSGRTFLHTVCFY
UniProt Q9NRF9: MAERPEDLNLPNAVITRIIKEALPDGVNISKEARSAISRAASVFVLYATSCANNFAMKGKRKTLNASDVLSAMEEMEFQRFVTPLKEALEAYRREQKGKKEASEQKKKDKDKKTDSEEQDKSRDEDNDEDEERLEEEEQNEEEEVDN
UniProt Q9H2J4: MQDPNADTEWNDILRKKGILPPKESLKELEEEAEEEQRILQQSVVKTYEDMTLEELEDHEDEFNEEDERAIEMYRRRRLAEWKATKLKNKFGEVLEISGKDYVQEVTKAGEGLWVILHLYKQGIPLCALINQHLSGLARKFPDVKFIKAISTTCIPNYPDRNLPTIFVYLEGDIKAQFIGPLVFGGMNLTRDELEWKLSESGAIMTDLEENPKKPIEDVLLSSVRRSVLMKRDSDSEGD
UniProt Q9H2P0: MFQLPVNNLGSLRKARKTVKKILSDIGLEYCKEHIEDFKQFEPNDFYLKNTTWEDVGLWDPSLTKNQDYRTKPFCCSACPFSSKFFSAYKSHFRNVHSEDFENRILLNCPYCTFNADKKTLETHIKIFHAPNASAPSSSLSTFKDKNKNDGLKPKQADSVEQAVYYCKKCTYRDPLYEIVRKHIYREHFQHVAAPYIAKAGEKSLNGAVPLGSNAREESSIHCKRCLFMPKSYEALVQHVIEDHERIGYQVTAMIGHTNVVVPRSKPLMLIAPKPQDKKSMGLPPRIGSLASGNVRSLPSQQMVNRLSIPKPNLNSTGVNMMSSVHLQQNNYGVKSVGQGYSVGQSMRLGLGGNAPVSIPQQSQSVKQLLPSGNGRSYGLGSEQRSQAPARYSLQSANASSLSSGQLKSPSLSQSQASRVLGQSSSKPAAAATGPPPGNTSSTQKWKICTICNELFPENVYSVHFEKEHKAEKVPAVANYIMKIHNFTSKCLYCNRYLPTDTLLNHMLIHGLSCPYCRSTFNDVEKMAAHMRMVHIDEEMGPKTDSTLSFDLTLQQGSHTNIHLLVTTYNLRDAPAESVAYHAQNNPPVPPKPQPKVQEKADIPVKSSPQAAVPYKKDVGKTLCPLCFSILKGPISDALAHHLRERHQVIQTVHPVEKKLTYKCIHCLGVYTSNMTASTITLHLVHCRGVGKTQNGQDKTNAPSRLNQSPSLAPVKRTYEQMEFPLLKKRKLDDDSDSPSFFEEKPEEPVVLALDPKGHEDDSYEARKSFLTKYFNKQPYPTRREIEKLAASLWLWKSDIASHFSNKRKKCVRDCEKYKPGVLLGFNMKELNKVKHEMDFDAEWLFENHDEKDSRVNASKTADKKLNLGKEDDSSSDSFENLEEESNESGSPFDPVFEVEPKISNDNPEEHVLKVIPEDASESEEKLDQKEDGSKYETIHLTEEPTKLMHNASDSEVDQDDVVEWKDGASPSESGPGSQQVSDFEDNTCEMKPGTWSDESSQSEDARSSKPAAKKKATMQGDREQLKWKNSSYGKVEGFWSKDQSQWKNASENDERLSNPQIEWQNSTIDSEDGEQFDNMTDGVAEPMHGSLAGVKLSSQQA
UniProt Q9H300: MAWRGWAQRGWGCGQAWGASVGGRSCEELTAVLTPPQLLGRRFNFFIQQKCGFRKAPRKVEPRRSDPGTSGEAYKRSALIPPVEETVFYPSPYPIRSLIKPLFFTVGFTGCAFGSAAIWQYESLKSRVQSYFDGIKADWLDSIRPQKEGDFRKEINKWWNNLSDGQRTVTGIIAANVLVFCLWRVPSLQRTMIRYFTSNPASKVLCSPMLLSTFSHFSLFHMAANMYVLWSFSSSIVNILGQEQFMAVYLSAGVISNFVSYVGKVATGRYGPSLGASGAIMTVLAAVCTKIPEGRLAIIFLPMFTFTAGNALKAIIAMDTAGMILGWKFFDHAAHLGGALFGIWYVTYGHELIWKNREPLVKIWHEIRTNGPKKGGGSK
UniProt Q9NRP2: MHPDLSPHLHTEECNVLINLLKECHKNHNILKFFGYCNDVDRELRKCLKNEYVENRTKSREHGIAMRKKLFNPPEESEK

Compound: Nc1nc2c(ncn2[C@@H]2O[C@H](COP(=O)(O)OP(=O)(O)OP(=O)(O)O)[C@@H](O)[C@H]2O)c(=O)[nH]1 [guanosine triphosphate]
Assay: NP40-soluble protein abundance relative to vehicle (solubility fold change) (ratio); higher = more soluble protein in presence of GTP
Outline: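 Across three independent experiments, values are fold changes against the detergent-processed vehicle for each replicate, based on vsn-normalised intensities. The samples were Jurkat crude lysate treated with eight concentrations (0.1 to 10 mM) for 10 min at room temperature and then 3 min at 37 °C. Lysate was solubilised with 0.8% NP40 and benzonase, ultracentrifuged, and the supernatant analysed by TMT-labelled LC-MS/MS.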

Target	NP40-soluble protein abundance (concentration: 0.1mM)	NP40-soluble protein abundance (concentration: 0.5mM)	NP40-soluble protein abundance (concentration: 1mM)	NP40-soluble protein abundance (concentration: 2mM)	NP40-soluble protein abundance (concentration: 4mM)	NP40-soluble protein abundance (concentration: 6mM)	NP40-soluble protein abundance (concentration: 8mM)	NP40-soluble protein abundance (concentration: 10mM)
UniProt Q9NS23 and related entries	0.978 ± 0.032	1.03 ± 0.098	1.04 ± 0.051	1.04 ± 0.058	1.05 ± 0.09	1.01 ± 0.022	0.971 ± 0.056	0.968 ± 0.11
UniProt Q9NS73 and related entries	1.03 ± 0.076	1.03 ± 0.045	1.16 ± 0.086	1.2 ± 0.16	1.31 ± 0.22	1.19 ± 0.14	1.3 ± 0.19	1.21 ± 0.13
XAB2 (UniProt Q9HCS7)	1.1 ± 0.033	1.1 ± 0.053	1.03 ± 0.068	1.03 ± 0.094	1.05 ± 0.1	0.997 ± 0.11	0.962 ± 0.072	0.938 ± 0.1
OSGEPL1 (UniProt Q9H4B0)	1.08 ± 0.1	0.942 ± 0.1	1.11 ± 0.11	1 ± 0.099	0.94 ± 0.062	0.994 ± 0.13	0.956 ± 0.042	0.924 ± 0.087
PCIF1 (UniProt Q9H4Z3)	0.97 ± 0.035	0.998 ± 0.018	0.952 ± 0.063	0.92 ± 0.067	0.918 ± 0.065	0.948 ± 0.072	0.902 ± 0.097	0.882 ± 0.068
UniProt Q9HC38-2|F6TLX2	0.98 ± 0.013	0.968 ± 0.026	0.925 ± 0.056	0.87 ± 0.071	0.863 ± 0.09	0.862 ± 0.076	0.876 ± 0.051	0.834 ± 0.09
UniProt Q9NPG3 and related entries	1.01 ± 0.086	1.06 ± 0.091	1.03 ± 0.028	1.09 ± 0.044	1.1 ± 0.059	1.1 ± 0.033	1.17 ± 0.17	1.23 ± 0.068
UniProt Q9H7H0 and related entries	1.06 ± 0.028	1.11 ± 0.083	1.03 ± 0.071	1.098 ± 0.0012	1.15 ± 0.11	1.17 ± 0.1	1.11 ± 0.099	1.12 ± 0.037
POFUT1 (UniProt Q9H488)	1.04 ± 0.054	0.988 ± 0.081	0.969 ± 0.082	0.939 ± 0.1	0.919 ± 0.11	0.911 ± 0.066	0.904 ± 0.095	0.884 ± 0.097
UBE2T (UniProt Q9NPD8)	0.968 ± 0.056	0.961 ± 0.068	1.04 ± 0.011	0.994 ± 0.035	0.946 ± 0.077	0.962 ± 0.052	0.933 ± 0.1	0.947 ± 0.13
DDX21 (UniProt Q9NR30)	1.11 ± 0.027	1.1 ± 0.048	1.18 ± 0.026	1.32 ± 0.019	1.56 ± 0.018	1.82 ± 0.028	2.13 ± 0.038	2.698 ± 0.024
UniProt Q9HDC9-2|Q9HDC9	0.959 ± 0.018	0.984 ± 0.013	0.898 ± 0.027	0.88 ± 0.023	0.861 ± 0.042	0.872 ± 0.03	0.861 ± 0.044	0.845 ± 0.059
FTO (UniProt Q9C0B1)	1.02 ± 0.044	0.998 ± 0.042	0.957 ± 0.035	0.914 ± 0.028	0.921 ± 0.036	0.889 ± 0.012	0.906 ± 0.07	0.871 ± 0.066
UniProt Q9H1B7	0.923 ± 0.06	0.918 ± 0.06	0.951 ± 0.037	0.915 ± 0.063	0.912 ± 0.03	0.907 ± 0.045	0.941 ± 0.045	0.929 ± 0.04
UniProt Q9NPA8 and related entries	0.933 ± 0.06	0.951 ± 0.11	1.05 ± 0.095	0.947 ± 0.14	0.901 ± 0.13	0.936 ± 0.17	0.861 ± 0.1	0.892 ± 0.083
GAN (UniProt Q9H2C0)	1.14 ± 0.063	1.06 ± 0.02	1.01 ± 0.064	1.03 ± 0.056	1.07 ± 0.033	1.04 ± 0.043	1.01 ± 0.052	0.96 ± 0.068
UniProt Q9H857 and related entries	1.2 ± 0.13	1.18 ± 0.21	1.04 ± 0.14	1.08 ± 0.19	1.09 ± 0.25	0.973 ± 0.092	0.988 ± 0.084	0.939 ± 0.096
UniProt Q9NSK0 and related entries	0.943 ± 0.071	0.945 ± 0.085	0.973 ± 0.084	0.949 ± 0.1	0.94 ± 0.086	0.948 ± 0.068	0.963 ± 0.089	0.949 ± 0.078
SSU72 (UniProt Q9NP77)	0.943 ± 0.09	0.936 ± 0.028	0.995 ± 0.091	0.962 ± 0.042	0.974 ± 0.14	0.912 ± 0.077	0.947 ± 0.19	0.913 ± 0.052
POLE3 (UniProt Q9NRF9)	0.976 ± 0.053	0.933 ± 0.034	1.05 ± 0.093	1.02 ± 0.043	0.982 ± 0.041	1.02 ± 0.056	1.03 ± 0.078	1.05 ± 0.056
UniProt Q9C0E8 and related entries	0.921 ± 0.042	0.973 ± 0.1	0.938 ± 0.042	0.941 ± 0.12	0.887 ± 0.085	0.983 ± 0.14	0.916 ± 0.062	0.939 ± 0.028
PDCL3 (UniProt Q9H2J4)	1.02 ± 0.051	1.07 ± 0.051	1.08 ± 0.08	1.12 ± 0.15	1.09 ± 0.13	1.09 ± 0.15	1.07 ± 0.1	1.05 ± 0.1
ADNP (UniProt Q9H2P0)	1.02 ± 0.021	1.05 ± 0.055	1.09 ± 0.059	1.14 ± 0.058	1.18 ± 0.1	1.22 ± 0.12	1.27 ± 0.14	1.25 ± 0.14
DEF6 (UniProt Q9H4E7)	0.989 ± 0.052	0.975 ± 0.053	0.954 ± 0.059	0.92 ± 0.085	0.909 ± 0.081	0.919 ± 0.077	0.926 ± 0.054	0.907 ± 0.068
UniProt Q9H832 and related entries	1.04 ± 0.06	0.987 ± 0.061	0.9687 ± 0.0042	1.12 ± 0.056	0.927 ± 0.013	0.934 ± 0.043	0.91 ± 0.034	0.963 ± 0.064
FAM117A (UniProt Q9C073)	1.31 ± 0.14	0.983 ± 0.018	1.28 ± 0.084	1.03 ± 0.024	1.1204 ± 7.8e-05	1.02 ± 0.037	1.1 ± 0.056	1.12 ± 0.086
UniProt Q9H300 and related entries	0.944 ± 0.046	0.996 ± 0.034	0.903 ± 0.061	0.955 ± 0.016	0.921 ± 0.067	0.982 ± 0.072	0.98 ± 0.069	1.02 ± 0.079
UniProt Q9H330 and related entries	0.908 ± 0.04	0.876 ± 0.06	0.796 ± 0.083	0.809 ± 0.017	0.799 ± 0.035	0.834 ± 0.028	0.81 ± 0.074	0.833 ± 0.037
PDF (UniProt Q9HBH1)	1.03 ± 0.061	1.02 ± 0.099	0.988 ± 0.1	0.935 ± 0.015	0.976 ± 0.055	0.942 ± 0.071	0.914 ± 0.089	0.934 ± 0.083
UniProt Q9NRP2	1.05 ± 0.072	1.05 ± 0.059	1.02 ± 0.067	0.966 ± 0.084	0.917 ± 0.11	0.918 ± 0.11	0.916 ± 0.069	0.904 ± 0.044

Record cards, from the list above. Values in the order: NP40-soluble protein abundance (concentration: 0.1mM)	NP40-soluble protein abundance (concentration: 0.5mM)	NP40-soluble protein abundance (concentration: 1mM)	NP40-soluble protein abundance (concentration: 2mM)	NP40-soluble protein abundance (concentration: 4mM)	NP40-soluble protein abundance (concentration: 6mM)	NP40-soluble protein abundance (concentration: 8mM)	NP40-soluble protein abundance (concentration: 10mM)
PDF (UniProt Q9HBH1) in the list: 1.03 ± 0.061	1.02 ± 0.099	0.988 ± 0.1	0.935 ± 0.015	0.976 ± 0.055	0.942 ± 0.071	0.914 ± 0.089	0.934 ± 0.083
DEF6 (UniProt Q9H4E7) in the list: 0.989 ± 0.052	0.975 ± 0.053	0.954 ± 0.059	0.92 ± 0.085	0.909 ± 0.081	0.919 ± 0.077	0.926 ± 0.054	0.907 ± 0.068
